Our source for the binding values is publication PMC9016900.

No constants are given. Whether binding was seen depends on the method and setting. Binding seen in cells or lysates may run through a third protein. A result given as binding can be weak or reduced; the word gives no strength. Tags and fused reporters may be left off the sequences shown.

This experiment addresses T1, Nuclear factor erythroid 2-related factor 2 (Nrf2), human, split-ubiquitin fusion (human) (UniProt Q16236).
T1 sequence: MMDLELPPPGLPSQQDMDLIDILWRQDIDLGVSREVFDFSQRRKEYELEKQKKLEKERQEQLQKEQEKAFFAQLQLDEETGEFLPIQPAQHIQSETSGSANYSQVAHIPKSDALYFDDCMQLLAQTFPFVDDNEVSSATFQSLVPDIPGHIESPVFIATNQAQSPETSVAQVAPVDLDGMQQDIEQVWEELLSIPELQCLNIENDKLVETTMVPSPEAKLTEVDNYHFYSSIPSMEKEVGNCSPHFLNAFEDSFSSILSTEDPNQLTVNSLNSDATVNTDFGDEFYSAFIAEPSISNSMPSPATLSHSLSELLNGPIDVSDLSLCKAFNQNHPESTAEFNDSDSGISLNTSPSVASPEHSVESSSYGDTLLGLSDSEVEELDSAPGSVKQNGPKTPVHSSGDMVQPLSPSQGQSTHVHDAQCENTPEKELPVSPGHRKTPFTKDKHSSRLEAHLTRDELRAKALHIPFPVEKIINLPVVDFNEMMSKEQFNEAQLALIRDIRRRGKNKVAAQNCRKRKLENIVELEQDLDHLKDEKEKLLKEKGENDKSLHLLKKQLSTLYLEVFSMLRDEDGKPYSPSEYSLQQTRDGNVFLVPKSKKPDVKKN
The experiment is described as follows: split reporter; yeast split-ubiquitin system: Nub (NuI, NuA, NuG) and Cub-RUra3p (CRU) fusions co-expressed in yeast; interaction = no growth on uracil- media and growth on 5FOA media; 5x serial dilutions spotted on selective agar plates.

As for Hsp90, split-ubiquitin fusion, the binding result is “binds”.
